How the values were obtained:
E. coli (KCTC 1682) = assay: Multipassage drug resistance study; format: cell-based, Escherichia coli; settings: continuous exposure at sub-MIC (0.5×MIC)
Protocol: The MICs of hirunipin 2 and antibiotics were determined, and the concentration of each sub‐MIC (0.5×MIC) of E. coli (KCTC 1682) was diluted to 1 × 10^6 CFU mL^−1 with MHB for the next passaged MIC determination. This procedure was repeated fifteen times. Ciprofloxacin and tetracycline were used as the controls.

MDRAB (329-53) = settings: antibiotic in combination with hirunipin 2
Protocol: Synergy testing by checkerboard assay: Briefly, each 96-well microtiter plate was inoculated with two-fold serial dilutions of two antibiotics, ranging from 1/8 MIC to 2 MIC, such that one antibiotic was inoculated in the columns and the other in the rows. Then, MDRAB (329-53) cells were inoculated at a concentration of 1× 10^6 CFU/mL. The plates were incubated overnight under static conditions and observed visually.

O=C(O)c1cn(C2CC2)c2cc(N3CCNCC3)c(F)cc2c1=O [CIP, Ciprofloxacin]
fold-change in the MICs after 15 passages (E. coli (KCTC 1682)): 4096 fold | FICI: fractional inhibitory concentration index, FICA + FICB (MDRAB (329-53)): 0.3125
